In the supplement of paper PMC10849652:
The other results are listed elsewhere or left out.

Sequences of proteins named here, by UniProt entry; tags and fusion partners are left off. A change or cut given only in a name is not applied to a line headed by its entry.
UniProt Q16740, whole entry, looked up: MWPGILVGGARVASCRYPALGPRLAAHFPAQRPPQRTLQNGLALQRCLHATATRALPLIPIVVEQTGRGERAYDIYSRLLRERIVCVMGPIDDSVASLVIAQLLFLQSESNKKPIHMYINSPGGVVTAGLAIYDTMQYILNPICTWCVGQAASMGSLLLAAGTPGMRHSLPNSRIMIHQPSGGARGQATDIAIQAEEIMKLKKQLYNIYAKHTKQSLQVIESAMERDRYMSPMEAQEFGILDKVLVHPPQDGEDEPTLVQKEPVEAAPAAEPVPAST
UniProt P30622: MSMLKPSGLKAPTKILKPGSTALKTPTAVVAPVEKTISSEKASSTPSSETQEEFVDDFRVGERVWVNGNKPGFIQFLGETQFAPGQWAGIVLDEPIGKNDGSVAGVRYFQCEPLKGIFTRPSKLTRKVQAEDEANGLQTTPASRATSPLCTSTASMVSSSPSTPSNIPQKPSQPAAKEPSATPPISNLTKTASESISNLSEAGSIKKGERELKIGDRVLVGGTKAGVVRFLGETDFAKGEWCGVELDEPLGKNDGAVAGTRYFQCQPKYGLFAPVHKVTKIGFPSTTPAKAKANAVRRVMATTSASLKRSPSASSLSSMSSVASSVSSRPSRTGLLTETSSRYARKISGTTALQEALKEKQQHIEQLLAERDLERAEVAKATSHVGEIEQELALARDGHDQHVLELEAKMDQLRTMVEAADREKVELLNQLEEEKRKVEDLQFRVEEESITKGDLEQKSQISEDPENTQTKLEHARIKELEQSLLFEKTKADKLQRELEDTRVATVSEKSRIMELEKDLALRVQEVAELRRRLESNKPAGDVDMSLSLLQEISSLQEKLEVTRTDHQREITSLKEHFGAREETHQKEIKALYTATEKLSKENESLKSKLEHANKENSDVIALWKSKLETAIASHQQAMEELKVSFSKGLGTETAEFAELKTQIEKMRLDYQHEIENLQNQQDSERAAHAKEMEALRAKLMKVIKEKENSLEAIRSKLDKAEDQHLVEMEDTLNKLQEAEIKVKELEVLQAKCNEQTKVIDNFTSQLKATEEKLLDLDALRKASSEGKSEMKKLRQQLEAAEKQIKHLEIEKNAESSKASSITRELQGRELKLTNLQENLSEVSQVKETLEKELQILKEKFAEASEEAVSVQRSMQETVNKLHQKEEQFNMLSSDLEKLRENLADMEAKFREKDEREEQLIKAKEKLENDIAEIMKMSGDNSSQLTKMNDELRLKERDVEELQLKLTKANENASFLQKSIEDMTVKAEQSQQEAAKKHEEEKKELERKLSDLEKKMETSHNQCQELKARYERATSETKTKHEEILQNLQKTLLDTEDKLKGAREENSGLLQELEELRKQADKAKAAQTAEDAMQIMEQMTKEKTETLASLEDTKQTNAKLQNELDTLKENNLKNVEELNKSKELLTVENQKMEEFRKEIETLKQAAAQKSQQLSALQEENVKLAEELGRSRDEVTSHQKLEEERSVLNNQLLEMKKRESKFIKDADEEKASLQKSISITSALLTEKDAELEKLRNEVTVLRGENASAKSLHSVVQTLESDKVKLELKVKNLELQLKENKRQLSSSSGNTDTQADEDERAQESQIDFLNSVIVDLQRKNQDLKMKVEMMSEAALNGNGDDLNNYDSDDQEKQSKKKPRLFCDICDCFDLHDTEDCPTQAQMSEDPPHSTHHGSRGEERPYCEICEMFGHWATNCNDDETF
UniProt Q8IZ52: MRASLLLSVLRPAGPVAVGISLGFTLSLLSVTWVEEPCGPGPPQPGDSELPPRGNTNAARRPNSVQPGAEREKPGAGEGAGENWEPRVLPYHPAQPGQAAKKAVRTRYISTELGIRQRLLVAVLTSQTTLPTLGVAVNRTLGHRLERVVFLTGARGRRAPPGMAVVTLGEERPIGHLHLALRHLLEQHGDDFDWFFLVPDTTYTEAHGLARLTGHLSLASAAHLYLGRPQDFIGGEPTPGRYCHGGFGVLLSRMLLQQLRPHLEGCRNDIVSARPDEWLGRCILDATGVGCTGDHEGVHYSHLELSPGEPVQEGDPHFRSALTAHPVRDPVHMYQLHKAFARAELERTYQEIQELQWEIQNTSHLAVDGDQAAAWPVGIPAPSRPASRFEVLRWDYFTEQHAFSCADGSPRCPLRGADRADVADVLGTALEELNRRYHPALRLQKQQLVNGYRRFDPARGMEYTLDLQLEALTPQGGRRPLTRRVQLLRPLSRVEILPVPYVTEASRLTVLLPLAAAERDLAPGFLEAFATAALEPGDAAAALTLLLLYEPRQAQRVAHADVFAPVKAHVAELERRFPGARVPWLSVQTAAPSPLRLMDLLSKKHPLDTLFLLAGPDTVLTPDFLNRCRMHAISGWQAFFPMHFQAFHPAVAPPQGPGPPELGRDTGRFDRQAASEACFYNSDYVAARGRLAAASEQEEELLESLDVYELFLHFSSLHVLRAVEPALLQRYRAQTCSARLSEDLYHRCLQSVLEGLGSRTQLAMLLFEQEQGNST
UniProt Q8N0X4: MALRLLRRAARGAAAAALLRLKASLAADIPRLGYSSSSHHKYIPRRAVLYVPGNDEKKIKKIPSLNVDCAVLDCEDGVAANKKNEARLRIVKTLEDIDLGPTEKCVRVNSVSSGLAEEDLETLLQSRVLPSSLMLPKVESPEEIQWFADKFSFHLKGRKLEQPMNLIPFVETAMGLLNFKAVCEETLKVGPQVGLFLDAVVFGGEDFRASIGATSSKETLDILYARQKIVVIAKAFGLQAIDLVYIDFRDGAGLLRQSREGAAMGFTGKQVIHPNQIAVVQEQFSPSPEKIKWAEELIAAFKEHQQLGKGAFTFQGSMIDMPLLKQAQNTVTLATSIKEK
UniProt Q86X52: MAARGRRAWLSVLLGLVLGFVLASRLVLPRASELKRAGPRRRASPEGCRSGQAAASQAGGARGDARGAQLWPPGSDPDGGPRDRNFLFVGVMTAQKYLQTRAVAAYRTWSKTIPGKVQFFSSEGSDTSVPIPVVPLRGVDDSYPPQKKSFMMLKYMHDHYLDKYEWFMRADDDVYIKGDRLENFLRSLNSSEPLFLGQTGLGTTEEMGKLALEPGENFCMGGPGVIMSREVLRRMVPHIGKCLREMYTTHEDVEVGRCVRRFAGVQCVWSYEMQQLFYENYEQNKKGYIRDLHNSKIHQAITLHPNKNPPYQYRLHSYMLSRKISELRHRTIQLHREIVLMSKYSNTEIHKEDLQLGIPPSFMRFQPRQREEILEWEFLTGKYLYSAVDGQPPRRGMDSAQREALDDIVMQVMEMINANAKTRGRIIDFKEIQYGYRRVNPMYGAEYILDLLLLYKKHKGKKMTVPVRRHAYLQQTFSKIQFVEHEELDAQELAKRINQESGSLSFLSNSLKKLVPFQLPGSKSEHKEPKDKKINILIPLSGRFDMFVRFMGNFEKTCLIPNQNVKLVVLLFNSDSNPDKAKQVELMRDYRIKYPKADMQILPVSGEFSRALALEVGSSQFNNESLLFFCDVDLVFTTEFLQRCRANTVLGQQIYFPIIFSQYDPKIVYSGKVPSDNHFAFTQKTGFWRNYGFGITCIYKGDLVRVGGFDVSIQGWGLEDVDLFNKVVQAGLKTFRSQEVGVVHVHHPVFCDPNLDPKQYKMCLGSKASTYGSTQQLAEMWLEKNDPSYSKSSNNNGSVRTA
UniProt Q9BW66: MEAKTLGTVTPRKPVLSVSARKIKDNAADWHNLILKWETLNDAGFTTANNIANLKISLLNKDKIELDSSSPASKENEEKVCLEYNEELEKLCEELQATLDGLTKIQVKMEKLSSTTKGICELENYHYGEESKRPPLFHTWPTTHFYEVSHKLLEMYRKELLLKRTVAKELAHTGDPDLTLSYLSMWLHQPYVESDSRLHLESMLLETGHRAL
UniProt Q9NX76: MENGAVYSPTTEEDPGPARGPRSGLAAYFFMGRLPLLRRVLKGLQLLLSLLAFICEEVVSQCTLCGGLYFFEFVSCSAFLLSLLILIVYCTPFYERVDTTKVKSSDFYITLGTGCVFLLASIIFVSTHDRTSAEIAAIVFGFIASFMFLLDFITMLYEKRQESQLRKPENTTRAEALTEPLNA
UniProt P56749: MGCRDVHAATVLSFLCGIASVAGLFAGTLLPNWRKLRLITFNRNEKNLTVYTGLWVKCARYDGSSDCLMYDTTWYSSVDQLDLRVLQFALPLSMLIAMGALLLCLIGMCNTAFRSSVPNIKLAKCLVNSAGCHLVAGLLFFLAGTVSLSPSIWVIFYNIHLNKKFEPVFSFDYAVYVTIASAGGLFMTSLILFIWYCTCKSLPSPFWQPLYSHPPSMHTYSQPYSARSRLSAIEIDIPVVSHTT
UniProt O94985: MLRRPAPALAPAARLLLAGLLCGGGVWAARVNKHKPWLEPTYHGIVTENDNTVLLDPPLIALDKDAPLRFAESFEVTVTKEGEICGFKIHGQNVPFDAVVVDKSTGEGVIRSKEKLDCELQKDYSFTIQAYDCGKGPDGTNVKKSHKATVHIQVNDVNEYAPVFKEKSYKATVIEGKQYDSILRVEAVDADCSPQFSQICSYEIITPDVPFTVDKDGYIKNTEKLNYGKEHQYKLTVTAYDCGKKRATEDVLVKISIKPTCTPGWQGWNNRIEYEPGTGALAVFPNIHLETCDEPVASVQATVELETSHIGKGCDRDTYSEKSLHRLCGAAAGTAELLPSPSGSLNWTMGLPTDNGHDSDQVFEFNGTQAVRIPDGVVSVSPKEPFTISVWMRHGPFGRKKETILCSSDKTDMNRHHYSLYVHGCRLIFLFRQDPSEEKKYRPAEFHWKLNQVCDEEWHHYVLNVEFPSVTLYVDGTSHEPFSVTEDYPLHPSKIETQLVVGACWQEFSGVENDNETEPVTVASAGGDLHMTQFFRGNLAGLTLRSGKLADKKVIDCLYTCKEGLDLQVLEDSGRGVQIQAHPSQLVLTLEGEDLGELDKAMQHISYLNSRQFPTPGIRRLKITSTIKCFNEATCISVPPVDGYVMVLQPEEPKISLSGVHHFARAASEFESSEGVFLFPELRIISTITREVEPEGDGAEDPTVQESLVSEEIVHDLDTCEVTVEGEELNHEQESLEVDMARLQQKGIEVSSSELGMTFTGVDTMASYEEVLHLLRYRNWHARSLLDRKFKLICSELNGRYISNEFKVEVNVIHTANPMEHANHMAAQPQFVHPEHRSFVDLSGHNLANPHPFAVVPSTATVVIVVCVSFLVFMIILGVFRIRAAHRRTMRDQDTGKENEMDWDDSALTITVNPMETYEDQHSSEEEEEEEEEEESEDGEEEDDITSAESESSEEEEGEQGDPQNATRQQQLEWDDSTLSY
UniProt Q9BSY4: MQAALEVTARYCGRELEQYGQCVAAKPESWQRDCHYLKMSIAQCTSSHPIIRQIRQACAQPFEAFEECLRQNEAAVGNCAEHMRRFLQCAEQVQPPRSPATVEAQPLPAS
UniProt Q9BUK0: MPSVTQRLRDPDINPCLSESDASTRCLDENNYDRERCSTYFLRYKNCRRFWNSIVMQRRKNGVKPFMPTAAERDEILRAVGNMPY
UniProt Q13286: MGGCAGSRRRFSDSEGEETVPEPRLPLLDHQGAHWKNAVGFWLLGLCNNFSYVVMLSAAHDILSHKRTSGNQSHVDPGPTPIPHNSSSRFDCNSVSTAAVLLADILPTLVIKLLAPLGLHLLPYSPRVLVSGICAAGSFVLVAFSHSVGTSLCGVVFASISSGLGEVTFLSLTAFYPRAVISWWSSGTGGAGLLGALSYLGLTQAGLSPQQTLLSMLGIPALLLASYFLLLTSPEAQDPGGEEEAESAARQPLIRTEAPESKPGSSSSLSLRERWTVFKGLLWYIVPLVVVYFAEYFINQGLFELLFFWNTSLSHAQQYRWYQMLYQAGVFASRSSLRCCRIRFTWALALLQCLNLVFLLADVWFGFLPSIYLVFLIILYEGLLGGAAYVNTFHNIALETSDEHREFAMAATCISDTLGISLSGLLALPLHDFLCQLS
UniProt Q8NCH0: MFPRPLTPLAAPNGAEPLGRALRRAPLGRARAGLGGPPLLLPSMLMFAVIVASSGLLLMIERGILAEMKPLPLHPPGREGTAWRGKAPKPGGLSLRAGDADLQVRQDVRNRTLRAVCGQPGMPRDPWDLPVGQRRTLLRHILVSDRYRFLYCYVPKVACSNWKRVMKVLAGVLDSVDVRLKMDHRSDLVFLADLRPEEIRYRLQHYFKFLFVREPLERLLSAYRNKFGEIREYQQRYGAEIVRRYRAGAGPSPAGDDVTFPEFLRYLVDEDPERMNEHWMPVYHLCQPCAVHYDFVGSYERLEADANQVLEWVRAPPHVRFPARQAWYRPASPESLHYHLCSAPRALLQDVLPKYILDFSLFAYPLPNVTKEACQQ

Tests used:
Experiment in all cases: log2 fold change, soluble protein after heating vs DMSO (PISA); higher = thermal stabilisation; K562 lysate, 10 uM; active = over 0.2 and 3.5 SD of the protein, either way, in both replicates (recomputed)
alvocidib = compound: CN1CC[C@H](c2c(O)cc(O)c3c(=O)cc(-c4ccccc4Cl)oc23)[C@H](O)C1 [alvocidib]
Procedure, shortened: (§1)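 Quantification was by TMTpro 16plex LC-MS/MS with equalised channel sums, applied to the supernatant after 21,000xg for 90 min. Samples were crude K562 extract at 1 mg/mL protein in PBS pH 7.4 with 1 mM MgCl2, treated with 10 μM compound for 30 min, heated for 3 min across 48°C-58°C, pooled and brought to 0.5% NP-40 at 4°C. Values are log-two fold changes in thermal stability relative to solvent controls, from duplicates.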

Tubastatin A = compound: CN1CCc2c(c3ccccc3n2Cc2ccc(C(=O)NO)cc2)C1 [Tubastatin A]
Procedure, shortened: as §1

[1] = compound: CNC(=O)C1=CC=CC=C1NC2=NC(=NC=C2Cl)NC3=C(C=C(C=C3)N4CCOCC4)OC
Procedure, shortened: as §1

defactinib = compound: CNC(=O)c1ccc(Nc2ncc(C(F)(F)F)c(NCc3nccnc3N(C)S(C)(=O)=O)n2)cc1 [defactinib]
Procedure, shortened: as §1

[2] = compound: CNc1nc(-c2ccc3c(N)n[nH]c3c2)cc(N2C[C@@H](C(=O)NC3CCCCC3)CC[C@H]2C)n1
Procedure, shortened: as §1

encorafenib = compound: COC(=O)N[C@@H](C)CNc1nccc(-c2cn(C(C)C)nc2-c2cc(Cl)cc(NS(C)(=O)=O)c2F)n1 [encorafenib]
Procedure, shortened: as §1

[3] = compound: COC(=O)[C@H](CCSC)NC(=O)C1=C(C=C(C=C1)NC[C@H](CS)N)C2=CC=CC=C2
Procedure, shortened: as §1

alisertib = compound: COc1cc(Nc2ncc3c(n2)-c2ccc(Cl)cc2C(c2c(F)cccc2OC)=NC3)ccc1C(=O)O [alisertib]
Procedure, shortened: as §1

[4] = compound: COc1cc2nc(-c3cc(F)ccc3O)nc(N[C@@H]3CNC[C@H]3C(C)(C)O)c2cc1OC
Procedure, shortened: as §1

gefitinib = compound: COc1cc2ncnc(Nc3ccc(F)c(Cl)c3)c2cc1OCCCN1CCOCC1 [gefitinib]
Procedure, shortened: as §1

Measured: log2 fold change

CLPP (UniProt Q16740)
inactive: alvocidib 0.027 | Tubastatin A 0.058 | [1] -0.011 | defactinib 0.059 | [2] -0.028 | encorafenib -0.023 | [3] 0.005 | alisertib 0.005 | [4] -0.007 | gefitinib -0.043

CLIP1 isoform 2 (UniProt P30622)
inactive: alvocidib 0.029 | Tubastatin A 0.117 | [1] -0.085 | [2] 0.088 | encorafenib -0.012 | [3] -0.015 | alisertib -0.033 | [4] -0.017 | gefitinib -0.005

CHD6 (UniProt Q8TD26)
inactive: alvocidib 0.058 | Tubastatin A -0.164 | defactinib 0.107 | [2] -0.224 | encorafenib -0.018 | [3] 0.074 | alisertib 0.042 | gefitinib -0.021

Two neighbouring entries from above:
CLPP (UniProt Q16740)
inactive: alvocidib 0.027 | Tubastatin A 0.058 | [1] -0.011 | defactinib 0.059 | [2] -0.028 | encorafenib -0.023 | [3] 0.005 | alisertib 0.005 | [4] -0.007 | gefitinib -0.043

CLIP1 isoform 2 (UniProt P30622)
inactive: alvocidib 0.029 | Tubastatin A 0.117 | [1] -0.085 | [2] 0.088 | encorafenib -0.012 | [3] -0.015 | alisertib -0.033 | [4] -0.017 | gefitinib -0.005

Following part.

CHPF (UniProt Q8IZ52)
inactive: alvocidib -0.008 | Tubastatin A 0.168 | [1] 0.075 | [2] -0.024 | encorafenib 0.02 | [3] 0.063

CHST11 (UniProt Q9NPF2)
inactive: alvocidib -0.039 | Tubastatin A 0.073 | [1] -0.059 | defactinib 0 | [2] 0.061 | encorafenib 0.189 | [3] 0.003 | alisertib -0.027 | gefitinib 0.004

CLYBL (UniProt Q8N0X4)
inactive: alvocidib 0.02 | Tubastatin A 0.016 | defactinib 0.021 | [2] -0.01 | encorafenib 0.149 | [3] -0.003 | alisertib -0.335 | [4] 0.121 | gefitinib 0.021

CHSY1 (UniProt Q86X52)
inactive: alvocidib -0.135 | Tubastatin A 0.043 | [1] 0.237 | [2] -0.008 | alisertib -0.1 | [4] 0.076 | gefitinib 0.023

CINP isoform 3 (UniProt Q9BW66)
inactive: alvocidib -0.056 | Tubastatin A -0.107 | defactinib -0.056 | [2] 0.028 | encorafenib 0.003 | [3] 0.062 | alisertib 0 | [4] 0.064 | gefitinib -0.24

CMTM6 (UniProt Q9NX76)
inactive: alvocidib -0.056 | Tubastatin A 0.232 | [1] 0.07 | [2] 0.046 | encorafenib -0.037 | [3] 0.075 | alisertib -0.025 | [4] -0.035 | gefitinib 0.054

CLDN12 (UniProt P56749)
inactive: alvocidib -0.057 | Tubastatin A -0.116 | [1] -0.23 | [2] 0.063 | encorafenib 0.03 | [3] -0.224 | alisertib -0.055 | [4] -0.06 | gefitinib 0.069

CLIP1, A0A3B3ITA2
inactive: alvocidib -0.036 | Tubastatin A 0.152 | defactinib -0.077

CLSTN1 (UniProt O94985)
inactive: alvocidib 0.086 | Tubastatin A -0.018 | encorafenib -0.042 | [3] -0.026 | alisertib 0.122 | [4] 0.157 | gefitinib -0.057

CHCHD5 (UniProt Q9BSY4)
inactive: alvocidib 0.129 | Tubastatin A 0.014 | [1] 0.057 | [2] 0.08 | alisertib 0.046 | gefitinib -0.252

CHCHD7 isoform 4 (UniProt Q9BUK0)
inactive: alvocidib -0.097 | Tubastatin A 0.082 | defactinib -0.009 | [2] -0.141 | encorafenib 0.005 | [3] -0.003 | alisertib 0.177 | [4] 0.027 | gefitinib 0.118

CLASP1 isoform 4 (UniProt Q7Z460)
inactive: [1] 0.046 | defactinib 0.223 | alisertib 0.063 | gefitinib 0.107

CLN3 (UniProt Q13286)
inactive: Tubastatin A -0.091 | [1] 0.084 | [2] -0.053 | alisertib -0.004 | [4] -0.1 | gefitinib 0.218

CHST14 (UniProt Q8NCH0)
inactive: alvocidib 0.082 | [2] 0.148 | alisertib 0.069 | gefitinib 0

CLSTN3 isoform 2 (UniProt Q9BQT9)
inactive: Tubastatin A 0.183 | [1] -0.058 | [2] 0.127 | alisertib 0.023 | [4] -0.014 | gefitinib 0.078

CLCN5 isoform 2 (UniProt P51795)
inactive: Tubastatin A 0.089 | [1] 0.034 | [4] 0.042

CHURC1-FNTB (UniProt B4DL54)
inactive: alvocidib -0.073 | encorafenib -0.002 | [3] -0.004
